Laboratory results: PubChem BioAssay AID493246 (Drosophila RNAi Screening Center, 2011)
The deposit covers about 21,000 reagents; shown is an unselected part of those with a known target gene and a result. Over the whole deposit, 429 (2%) got an active call. 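Values are raw and not normalised between plates; calls rest on per-plate z-scores that were not deposited.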 Not given: the amount of reagent, the time to read-out.

Screen: 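Identify essential fly genes by loss of cell viability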 (primary screen)
Cells: Drosophila Kc and S2R+ cells
Knock-down reagent: long dsRNA against Drosophila genes
Measured: 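Raw, unnormalised count of remaining cells in each well; per-plate z-scores of cell number underlie the calls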
Direction: Kc cell number and S2R+ cell number: higher = more cells remaining
Hit rule: 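Counted as a hit if cell number falls by a z-score of at least 3 within its plate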

Against CHKov1 (GeneID 43067) [DRSC01566], the entry reads Kc cell number, rep 1 = 1.48e6; Kc cell number, rep 2 = 1.53e6; S2R+ cell number, rep 1 = 9.18e5; S2R+ cell number, rep 2 = 1.05e6; inactive.
Against CHKov1 (GeneID 43067) [DRSC01696] the deposit lists Kc cell number, rep 1 = 1.37e6; Kc cell number, rep 2 = 1.45e6; S2R+ cell number, rep 1 = 8.63e5; S2R+ cell number, rep 2 = 1.09e6; inactive.
Depletion of CHKov1 (GeneID 43067) [DRSC14258] resulted in: Kc cell number, rep 1 = 1.83e6; Kc cell number, rep 2 = 1.79e6; S2R+ cell number, rep 1 = 1.03e6; S2R+ cell number, rep 2 = 1.19e6; inactive.
For CHKov1 (GeneID 43067) [DRSC20937], the entry reads Kc cell number, rep 1 = 1.45e6; Kc cell number, rep 2 = 1.54e6; S2R+ cell number, rep 1 = 1.11e6; S2R+ cell number, rep 2 = 1.13e6; inactive.
Against CG5250 (GeneID 42308) [DRSC15752], the entry reads Kc cell number, rep 1 = 1.41e6; Kc cell number, rep 2 = 1.41e6; S2R+ cell number, rep 1 = 1.13e6; S2R+ cell number, rep 2 = 1.26e6; inactive.
Smyd5 (GeneID 42517) [DRSC15483] gave Kc cell number, rep 1 = 1.39e6; Kc cell number, rep 2 = 1.41e6; S2R+ cell number, rep 1 = 9.74e5; S2R+ cell number, rep 2 = 1.10e6; inactive.

2 entries from above, reformatted.
target gene	dsRNA	Kc cell number, rep 1	Kc cell number, rep 2	S2R+ cell number, rep 1	S2R+ cell number, rep 2	call
CHKov1 (GeneID 43067)	DRSC20937	1.45e6	1.54e6	1.11e6	1.13e6	inactive
CG5250 (GeneID 42308)	DRSC15752	1.41e6	1.41e6	1.13e6	1.26e6	inactive

The list goes on.
Depletion of Setd3 (GeneID 31638) [DRSC17840] resulted in: Kc cell number, rep 1 = 1.46e6; Kc cell number, rep 2 = 1.49e6; S2R+ cell number, rep 1 = 1.04e6; S2R+ cell number, rep 2 = 1.22e6; inactive.
Knock-down of Setd3 (GeneID 31638) [DRSC18269] came out at: Kc cell number, rep 1 = 1.52e6; Kc cell number, rep 2 = 1.46e6; S2R+ cell number, rep 1 = 1.05e6; S2R+ cell number, rep 2 = 1.17e6; inactive.
Against caz (GeneID 32587) [DRSC20317], the entry reads Kc cell number, rep 1 = 1.36e6; Kc cell number, rep 2 = 1.41e6; S2R+ cell number, rep 1 = 9.54e5; S2R+ cell number, rep 2 = 1.08e6; inactive.
Depletion of Akr1B (GeneID 39304) [DRSC10581] resulted in: Kc cell number, rep 1 = 1.42e6; Kc cell number, rep 2 = 1.53e6; S2R+ cell number, rep 1 = 1.15e6; S2R+ cell number, rep 2 = 1.06e6; inactive.
Knock-down of CG6785 (GeneID 34620) [DRSC02993] came out at: Kc cell number, rep 1 = 1.30e6; Kc cell number, rep 2 = 1.38e6; S2R+ cell number, rep 1 = 1.06e6; S2R+ cell number, rep 2 = 1.15e6; inactive.
For hui (GeneID 36648) [DRSC05977], the entry reads Kc cell number, rep 1 = 1.58e6; Kc cell number, rep 2 = 1.58e6; S2R+ cell number, rep 1 = 1.10e6; S2R+ cell number, rep 2 = 1.25e6; inactive.
Knock-down of CG31798 (GeneID 318946) [DRSC01702] gave: Kc cell number, rep 1 = 1.49e6; Kc cell number, rep 2 = 1.56e6; S2R+ cell number, rep 1 = 9.66e5; S2R+ cell number, rep 2 = 1.15e6; inactive.
Against PGAP1 (GeneID 31487) [DRSC18286], the entry reads Kc cell number, rep 1 = 5.25e5; S2R+ cell number, rep 1 = 8.85e5; inactive.
